Values joined by “and” are separate entries in the source; they are usually repeats but may differ in a detail not shown here. Equal entries are not always repeated. The campaign covered roughly 260,000 compounds. About 1,500 (0.58%) were called active. The inconclusive results got no clear call from the source; some entries with a clear call stand among them for comparison.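 The calls were made as follows: active = inhibition above a set limit at one or more doses, reproduced on every date tested; inconclusive = results disagree between test dates, or hit never tested in dose response; inactive = the rest.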
target: Virion infectivity factor (Human immunodeficiency virus type 1 group M subtype B (isolate BH10)) + Virion infectivity factor (Human immunodeficiency virus type 1 group M subtype B (isolate BRU/LAI)) + Virion infectivity factor (Human immunodeficiency virus type 1 group M subtype B (isolate PCV12)) + Virion infectivity factor (Human immunodeficiency virus type 1 group M subtype B (isolate HXB2)) + DNA dC->dU-editing enzyme APOBEC-3G (Homo sapiens) (UniProt P69720+P69721+P69722+P69723+Q9HC16); assay: inhibitors of Vif binding to APOBEC3G peptide, primary screen, biochemical, TR-FRET, GST-Vif 1-94, biotin-A3G peptide, dose response retest (AID 1117319); details: active compounds read high;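 also: Vif residues 1-94 fused to GST binding biotinylated APOBEC3G peptide 110-148; 0% = full assay without inhibitor and 100% = GST in place of GST-Vif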

Chains of the proteins cited; added tags and fusions are not shown. Lines headed by an entry give the natural chain unless they say otherwise; changes in a name come on top.
UniProt P69720: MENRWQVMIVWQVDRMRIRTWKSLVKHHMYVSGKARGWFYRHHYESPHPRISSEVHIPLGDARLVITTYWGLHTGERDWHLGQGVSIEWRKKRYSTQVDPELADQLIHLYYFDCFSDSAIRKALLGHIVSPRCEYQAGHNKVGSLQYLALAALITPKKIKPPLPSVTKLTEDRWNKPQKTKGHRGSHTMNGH
UniProt P69721: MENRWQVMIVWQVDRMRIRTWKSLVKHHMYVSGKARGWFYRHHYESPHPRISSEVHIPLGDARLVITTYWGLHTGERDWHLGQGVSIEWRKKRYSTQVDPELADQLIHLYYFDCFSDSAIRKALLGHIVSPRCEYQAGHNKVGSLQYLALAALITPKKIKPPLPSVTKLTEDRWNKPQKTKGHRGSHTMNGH
UniProt P69722: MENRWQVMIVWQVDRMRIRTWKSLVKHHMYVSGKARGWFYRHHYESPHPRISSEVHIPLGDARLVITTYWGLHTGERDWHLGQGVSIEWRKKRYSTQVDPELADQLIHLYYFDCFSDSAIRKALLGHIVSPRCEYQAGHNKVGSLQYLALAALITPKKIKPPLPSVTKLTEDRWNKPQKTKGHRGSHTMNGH
UniProt P69723: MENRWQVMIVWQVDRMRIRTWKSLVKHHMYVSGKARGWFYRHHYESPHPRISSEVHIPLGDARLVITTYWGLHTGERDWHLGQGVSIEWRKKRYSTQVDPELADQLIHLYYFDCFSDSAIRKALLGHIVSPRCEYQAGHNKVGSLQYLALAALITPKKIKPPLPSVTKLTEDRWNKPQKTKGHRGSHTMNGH
UniProt Q9HC16: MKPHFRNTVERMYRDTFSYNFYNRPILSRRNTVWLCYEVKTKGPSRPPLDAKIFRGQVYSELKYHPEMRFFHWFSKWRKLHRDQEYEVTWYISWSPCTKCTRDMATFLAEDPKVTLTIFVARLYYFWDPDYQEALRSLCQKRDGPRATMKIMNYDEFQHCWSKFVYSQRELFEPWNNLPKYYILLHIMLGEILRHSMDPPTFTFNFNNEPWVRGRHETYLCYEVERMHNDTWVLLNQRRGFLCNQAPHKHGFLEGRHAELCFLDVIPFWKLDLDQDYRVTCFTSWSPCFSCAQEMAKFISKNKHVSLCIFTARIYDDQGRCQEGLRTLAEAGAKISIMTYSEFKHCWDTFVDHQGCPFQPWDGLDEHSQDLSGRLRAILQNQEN

Compound	inhibition
COCCSc1ccccc1C(=O)NCc1ccc(S(N)(=O)=O)cc1	inconclusive: 58.6%
O=[N+]([O-])c1cc(S(=O)(=O)N2CCCCCC2)ccc1F	inconclusive: 35.3%
O=C(Cc1ccc(Br)cc1)N1CCN(c2ccccc2O)CC1	inconclusive: 39.3%
COc1cc(CN(C(=O)c2ccco2)c2ccc(C)cc2)ccc1O	inconclusive: 68.7%
CCOC(=O)NC(NCc1cccc(C(F)(F)F)c1)(C(F)(F)F)C(F)(F)F	inconclusive: 35.2%
Cc1cc(=O)n2[nH]c(-c3sccc3-n3c(C)ccc3C)cc2n1	inactive: -3.07%
Cc1ccc(CN2CC34C=CC(O3)C(C(=O)NCc3ccc5c(c3)OCO5)C4C2=O)cc1 (stereo unspecified)	inconclusive: 29.1%
Cc1occc1C(=O)Nc1sc2c(c1C(N)=O)CCC(C(C)(C)C)C2 (stereo unspecified)	inconclusive: 52.1%
O=C(O)CSCCCC(=O)Nc1ccc(Br)cc1	inconclusive: 39.1%
Cc1ccc(NC(=O)NCCN2C(=O)C3C4C=CC(C4)C3C2=O)cc1 (stereo unspecified)	inconclusive: 50.3%
CCCNC(=O)Cn1c(=O)n(C)c2ccccc21	inconclusive: 60%
Cc1ccc(O)c(N=Cc2ccc(C)s2)c1	inconclusive: 37.8%
O=C(NCC(c1ccco1)N1CCN(c2ccccc2)CC1)OCc1ccccc1 (stereo unspecified)	inconclusive: 34.6%
CN(C)c1ccc(/C=N\NC(=O)c2cccc3cc[nH]c23)cc1	inconclusive: 36.3%
CC1=Nc2cccc3cccc(c23)N1C	inconclusive: 34.5%
CCC(C)N=C1SCC(C)(/C=N/O)S1 (stereo unspecified)	inconclusive: 54.5%
Cc1nn(-c2ccccn2)c2c1C(=O)CC(C)(C)C2Br (stereo unspecified)	inconclusive: 39.8%
Cc1nc2ccc(F)cc2cc1C(=O)NC(C)C	inactive: -0.13%
COc1ccc(N(CC(=O)NCCC2=CCCCC2)S(=O)(=O)c2c(C)[nH]c(=O)[nH]c2=O)cc1	inconclusive: 52.8%

Compound	inhibition
O=C(CN1CCCN(Cc2ccc(F)cc2Cl)C1=O)NCc1ccccc1	inconclusive: 33.9%
O=C(CC1C(=O)NCCN1Cc1c(F)cccc1Cl)NC1CCCCCC1 (stereo unspecified)	inconclusive: 41.2%
COc1ccc(C(C(=O)NC2CCCCC2)N(C(=O)c2cccs2)c2ccc3c(c2)OCO3)cc1 (stereo unspecified)	inconclusive: 59.2%
O=C(C[n+]1ccccc1)N1CCCc2ccccc21	inconclusive: 33.7%
O=C(CNc1cccc(C(F)(F)F)c1)N/N=C/c1ccccc1C(=O)O	inconclusive: 37.5%
COc1ccc2oc(C(=O)c3ccccc3)c(NC(=O)CN3CCN(C)CC3)c2c1	inactive: 1.78% and inactive: 5.75%
Cc1cc2cc(C(c3nnnn3Cc3ccco3)N3CCCCC3)c(=O)[nH]c2cc1C (stereo unspecified)	inconclusive: 53.5%
COc1ccc(OCc2cc(C(=O)NCC(C)Oc3cccnc3)no2)c(Cl)c1 (stereo unspecified)	inconclusive: 37.8%
O=C(Nc1ccc(S(=O)(=O)Nc2ncccn2)cc1)c1ccccc1NS(=O)(=O)c1ccc(F)cc1	inconclusive: 45.6%
CC(C)c1ccc(NC(=O)COC(=O)C2=COCCO2)cc1	inconclusive: 39.8%
O=C(O)CCCC(=O)Nc1ccccc1Br	inconclusive: 34.3%
Cc1ccc(NC(=O)CCNS(=O)(=O)c2cccc3nonc23)cc1	inactive: 2.21%
Cc1cc(C)n2nc(SCC(=O)N(C)C)nc2n1	inconclusive: 42.8%
CCOc1ccc(/C=C2\SC(=S)N(NC(=O)c3ccncc3)C2=O)cc1OC	inconclusive: 54.6%
NC(=O)CS(=O)(=O)c1nc2ccccc2n1Cc1ccccn1	inconclusive: 58.2%
NS(=O)(=O)c1ccc(CCNC(=O)NC2(C(F)(F)F)Oc3ccccc3O2)cc1	inconclusive: 45.7%
CC(=NCCCNC1CCCCC1)C1=C(O)CC(C)(C)CC1=O	inconclusive: 38.9%
CCOc1ccc(C(=O)N2CCCCCC2)cc1	inconclusive: 46.1%
CNc1ccccc1C(C)(C)c1cc(-c2ccco2)n[nH]1	inconclusive: 46.5%

In the list so far, 5 have an NH in an aromatic ring:
Compound	inhibition
Cc1cc(=O)n2[nH]c(-c3sccc3-n3c(C)ccc3C)cc2n1	inactive: -3.07%
CN(C)c1ccc(/C=N\NC(=O)c2cccc3cc[nH]c23)cc1	inconclusive: 36.3%
COc1ccc(N(CC(=O)NCCC2=CCCCC2)S(=O)(=O)c2c(C)[nH]c(=O)[nH]c2=O)cc1	inconclusive: 52.8%
Cc1cc2cc(C(c3nnnn3Cc3ccco3)N3CCCCC3)c(=O)[nH]c2cc1C (stereo unspecified)	inconclusive: 53.5%
CNc1ccccc1C(C)(C)c1cc(-c2ccco2)n[nH]1	inconclusive: 46.5%

(continued)

Compound	inhibition
CCC(C)NC(=O)COC(=O)c1cc([N+](=O)[O-])ccc1Sc1nc(C)cs1 (stereo unspecified)	inconclusive: 46.5%
COc1ncnc2c1ncn2CCCN(C)CCc1ccccn1	inactive: 3.23%
NS(=O)(=O)c1cc2c(cc1Cl)NC(C(Cl)Cl)NS2(=O)=O (stereo unspecified)	inconclusive: 44.7%
O=C1C(=O)N(CNc2cccnc2)c2ccccc21	inconclusive: 50.6%
O=[N+]([O-])c1ccc(N2CCN(S(=O)(=O)c3ccccc3)CC2)cc1NCc1ccco1	inconclusive: 38.6%
CC(C)CNC1CS(=O)(=O)CC1O (stereo unspecified)	inconclusive: 45.5%
O=C(Nc1ccc(C2=NCCN2)cc1)c1ccc(C(=O)Nc2ccc(C3=NCCN3)cc2)c([N+](=O)[O-])c1	inconclusive: 37.7%
Cn1c(SCC(=O)NNC(=O)Nc2ccc(Cl)cc2)nnc1-c1ccccc1	inconclusive: 41.6%
COc1c(/C=N/Nc2nc(N3CCCCC3)nc(N3CCCCC3)n2)cccc1[N+](=O)[O-]	inconclusive: 33.1%
CCOc1ccc(C(CC(=O)O)NC(=O)C2c3ccccc3Oc3ccccc32)cc1 (stereo unspecified)	inconclusive: 48.8%
CC(C)(C)OC(=O)N1CCC2(CC1)C(C#N)=C(N)OC1=C2C(=O)CCC1	inconclusive: 46.7%
Cc1nc2ccccc2c(=O)n1NC(=O)c1cccnc1Cl	inconclusive: 40.3%
O=C1c2ccccc2C(=O)N1CCCON1C(=O)c2ccccc2C1=O	inactive: -6.06%
Cc1cc[n+]2cc(-c3cccc([N+](=O)[O-])c3)c(-c3cccc([N+](=O)[O-])c3)cc2c1	inconclusive: 39.5%
CN(C)C(CNS(=O)(=O)c1ccc(F)cc1)c1cccnc1 (stereo unspecified)	inactive: -1.58%
O=C(Nc1ccc(Oc2ccccc2)nc1)C1CCCCN1Cc1ccco1 (stereo unspecified)	inactive: 9.99%
CCOC(=O)c1cnc2ccc(Cl)cc2c1Nc1ccc(S(=O)(=O)Nc2ncccn2)cc1	inconclusive: 43.9%
O=[N+]([O-])c1ccc(/C=N/NC(=S)Nc2ccccc2F)o1	inconclusive: 41.3%

Part of the list above in order of SMILES length, smallest number first.
Compound	inhibition
CCOc1ccc(C(CC(=O)O)NC(=O)C2c3ccccc3Oc3ccccc32)cc1 (stereo unspecified)	inconclusive: 48.8%
CC(C)(C)OC(=O)N1CCC2(CC1)C(C#N)=C(N)OC1=C2C(=O)CCC1	inconclusive: 46.7%
CCOC(=O)c1cnc2ccc(Cl)cc2c1Nc1ccc(S(=O)(=O)Nc2ncccn2)cc1	inconclusive: 43.9%
